{"source": "PubChem BioAssay AID652243 | Drosophila RNAi Screening Center | 2013", "aim": "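Fly regulators of androgen-dependent reporter output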 (primary screen)", "cells": "Drosophila S2R+ cells", "reagents": "long dsRNA against Drosophila genes", "time to read-out": "72 h (48 h, then 24 h hormone)", "treatment": "synthetic androgen R1881 at 10 nM for 24 h", "measured": "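Per-well raw luminescence of the androgen-driven firefly reporter and of the Renilla control, two replicates each, without normalisation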", "direction": "firefly reporter light: higher = more light from androgen-responsive reporter; Renilla control light: higher = more constitutive control signal (cell number, transfection)", "call rule": "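Hit when the log firefly-to-Renilla ratio dropped or increased by a fixed fold versus the mean of GFP or LacZ controls across duplicate plates; lowering cut given as 1.5 and as 3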", "meaning of the calls": "active = hit: reporter lowered or raised; inactive = no hit", "note": "In all, the deposit lists about 24,000 reagents; this is a random part of those that have a named target and a result. In the full data, 246 (1%) were called active. 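Plates not normalised; calls are printed but the firefly/Renilla ratio behind them is not deposited; fold cut for lowering reported inconsistently.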 Raw values vary from plate to plate and are shown uncorrected. Not stated in the record: the amount of reagent."}
{"target":"CG31266 (GeneID 42071)","DRSC id":"DRSC15747","firefly reporter light, replicate 1":2.52e5,"firefly reporter light, replicate 2":2.06e5,"Renilla control light, replicate 1":3.04e6,"Renilla control light, replicate 2":2.74e6,"Call":"inactive"}
{"target":"CG6843 (GeneID 40062)","DRSC id":"DRSC10725","firefly reporter light, replicate 1":3.19e5,"firefly reporter light, replicate 2":2.50e5,"Renilla control light, replicate 1":2.08e6,"Renilla control light, replicate 2":2.07e6,"Call":"inactive"}
{"target":"CG6843 (GeneID 40062)","DRSC id":"DRSC29943","firefly reporter light, replicate 1":6.06e5,"firefly reporter light, replicate 2":4.70e5,"Renilla control light, replicate 1":1.14e6,"Renilla control light, replicate 2":8.90e5,"Call":"inactive"}
{"target":"Idh3b (GeneID 42586)","DRSC id":"DRSC16040","firefly reporter light, replicate 1":92448,"firefly reporter light, replicate 2":72831,"Renilla control light, replicate 1":5.52e5,"Renilla control light, replicate 2":7.41e5,"Call":"inactive"}
{"target":"Idh3b (GeneID 42586)","DRSC id":"DRSC28483","firefly reporter light, replicate 1":3.97e5,"firefly reporter light, replicate 2":7.23e5,"Renilla control light, replicate 1":7.89e5,"Renilla control light, replicate 2":1.19e6,"Call":"inactive"}
{"target":"Vha16-4 (GeneID 36900)","DRSC id":"DRSC07321","firefly reporter light, replicate 1":47389,"firefly reporter light, replicate 2":86181,"Renilla control light, replicate 1":1.26e6,"Renilla control light, replicate 2":1.26e6,"Call":"inactive"}
{"target":"CG14778 (GeneID 31100)","DRSC id":"DRSC17953","firefly reporter light, replicate 1":3.23e5,"firefly reporter light, replicate 2":2.77e5,"Renilla control light, replicate 1":4.83e6,"Renilla control light, replicate 2":3.95e6,"Call":"inactive"}
{"target":"CG13043 (GeneID 39796)","DRSC id":"DRSC09924","firefly reporter light, replicate 1":2.86e5,"firefly reporter light, replicate 2":2.53e5,"Renilla control light, replicate 1":2.76e6,"Renilla control light, replicate 2":2.17e6,"Call":"inactive"}
{"target":"CG13043 (GeneID 39796)","DRSC id":"DRSC25440","firefly reporter light, replicate 1":7.00e5,"firefly reporter light, replicate 2":7.63e5,"Renilla control light, replicate 1":1.48e6,"Renilla control light, replicate 2":1.46e6,"Call":"inactive"}
{"target":"Sh3beta (GeneID 38820)","DRSC id":"DRSC11001","firefly reporter light, replicate 1":8.69e5,"firefly reporter light, replicate 2":6.09e5,"Renilla control light, replicate 1":2.77e6,"Renilla control light, replicate 2":2.41e6,"Call":"inactive"}
{"target":"Sh3beta (GeneID 38820)","DRSC id":"DRSC22053","firefly reporter light, replicate 1":6.32e5,"firefly reporter light, replicate 2":5.18e5,"Renilla control light, replicate 1":6.37e5,"Renilla control light, replicate 2":6.27e5,"Call":"inactive"}
{"target":"Sh3beta (GeneID 38820)","DRSC id":"DRSC27871","firefly reporter light, replicate 1":6.67e5,"firefly reporter light, replicate 2":5.17e5,"Renilla control light, replicate 1":2.09e6,"Renilla control light, replicate 2":1.19e6,"Call":"inactive"}
{"target":"CG30383 (GeneID 246583)","DRSC id":"DRSC05062","firefly reporter light, replicate 1":1.55e5,"firefly reporter light, replicate 2":1.85e5,"Renilla control light, replicate 1":4.40e5,"Renilla control light, replicate 2":3.66e5,"Call":"inactive"}
{"target":"jim (GeneID 43924)","DRSC id":"DRSC11889","firefly reporter light, replicate 1":42938,"firefly reporter light, replicate 2":54958,"Renilla control light, replicate 1":4.39e5,"Renilla control light, replicate 2":4.82e5,"Call":"inactive"}
{"target":"jim (GeneID 43924)","DRSC id":"DRSC23829","firefly reporter light, replicate 1":2.29e5,"firefly reporter light, replicate 2":2.91e5,"Renilla control light, replicate 1":4.13e5,"Renilla control light, replicate 2":3.91e5,"Call":"inactive"}
{"target":"l(3)neo38 (GeneID 41423)","DRSC id":"DRSC14946","firefly reporter light, replicate 1":1.88e5,"firefly reporter light, replicate 2":2.20e5,"Renilla control light, replicate 1":2.08e6,"Renilla control light, replicate 2":1.36e6,"Call":"inactive"}
{"target":"l(3)neo38 (GeneID 41423)","DRSC id":"DRSC16138","firefly reporter light, replicate 1":1.17e5,"firefly reporter light, replicate 2":1.70e5,"Renilla control light, replicate 1":2.78e6,"Renilla control light, replicate 2":2.93e6,"Call":"inactive"}
{"target":"l(3)neo38 (GeneID 41423)","DRSC id":"DRSC23262","firefly reporter light, replicate 1":7.06e5,"firefly reporter light, replicate 2":6.04e5,"Renilla control light, replicate 1":1.12e6,"Renilla control light, replicate 2":8.38e5,"Call":"inactive"}
{"target":"l(3)neo38 (GeneID 41423)","DRSC id":"DRSC27112","firefly reporter light, replicate 1":4.75e5,"firefly reporter light, replicate 2":4.71e5,"Renilla control light, replicate 1":8.07e5,"Renilla control light, replicate 2":6.90e5,"Call":"inactive"}
{"target":"l(3)neo38 (GeneID 41423)","DRSC id":"DRSC27668","firefly reporter light, replicate 1":4.31e5,"firefly reporter light, replicate 2":2.54e5,"Renilla control light, replicate 1":6.13e5,"Renilla control light, replicate 2":5.18e5,"Call":"inactive"}
{"target":"dup (GeneID 47121)","DRSC id":"DRSC07088","firefly reporter light, replicate 1":1.40e5,"firefly reporter light, replicate 2":1.21e5,"Renilla control light, replicate 1":8.22e5,"Renilla control light, replicate 2":8.22e5,"Call":"inactive"}
{"target":"CG34149 (GeneID 4379861)","DRSC id":"DRSC14537","firefly reporter light, replicate 1":71696,"firefly reporter light, replicate 2":85371,"Renilla control light, replicate 1":6.27e5,"Renilla control light, replicate 2":6.18e5,"Call":"inactive"}
{"target":"Prp40 (GeneID 33513)","DRSC id":"DRSC00612","firefly reporter light, replicate 1":6.38e5,"firefly reporter light, replicate 2":5.13e5,"Renilla control light, replicate 1":2.27e6,"Renilla control light, replicate 2":2.13e6,"Call":"inactive"}
{"target":"CG30122 (GeneID 37146)","DRSC id":"DRSC06935","firefly reporter light, replicate 1":84549,"firefly reporter light, replicate 2":1.33e5,"Renilla control light, replicate 1":1.66e6,"Renilla control light, replicate 2":1.50e6,"Call":"inactive"}
{"target":"CG5535 (GeneID 39990)","DRSC id":"DRSC10514","firefly reporter light, replicate 1":84257,"firefly reporter light, replicate 2":61575,"Renilla control light, replicate 1":5.12e5,"Renilla control light, replicate 2":5.88e5,"Call":"inactive"}
{"target":"CG5535 (GeneID 39990)","DRSC id":"DRSC29215","firefly reporter light, replicate 1":7.44e5,"firefly reporter light, replicate 2":5.08e5,"Renilla control light, replicate 1":1.86e6,"Renilla control light, replicate 2":1.87e6,"Call":"inactive"}
{"target":"CG13806 (GeneID 38292)","DRSC id":"DRSC08341","firefly reporter light, replicate 1":76480,"firefly reporter light, replicate 2":1.14e5,"Renilla control light, replicate 1":1.01e6,"Renilla control light, replicate 2":1.26e6,"Call":"inactive"}

Look-ups from the list.
Under “Renilla control light, replicate 2”, l(3)neo38 (GeneID 41423) [DRSC27112] reads 6.90e5
Entry of l(3)neo38 (GeneID 41423) [DRSC23262] under “Renilla control light, replicate 2”: 8.38e5
Entry for Idh3b (GeneID 42586) [DRSC28483] under “firefly reporter light, replicate 1”: 3.97e5
